## Binding screen against folded nucleic acids

Calls as published in the ROBIN set (doi:10.1002/anie.202211358).

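Each compound is printed as two spots on a slide made to bind it covalently, so it has no test concentration; the read-out is fluorescence of the bound, labelled oligonucleotide. For the PreQ1, TPP and SAM-II riboswitches the laboratory earlier reported (doi:10.1038/s41467-019-09493-3) 1 µM RNA, 2 h, and a rule that included a mean Z-score above 3 (spot signal-to-noise against the whole library), a score well above that on a control array, and duplicate spots agreeing (coefficient of variation under 100). The data file gives only the calls; its cut-offs may differ, and compounds hitting several targets are kept. The calls come from the array alone, and fixing a compound to the slide can hide its binding.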
A compound is marked hit if it was called a hit and none if it was screened but was not.
The compounds are a random part of those screened.
A target missing from an entry has no call listed here.

Oligonucleotides screened, 5′ to 3′:
PreQ1: PreQ1 riboswitch RNA pseudoknot, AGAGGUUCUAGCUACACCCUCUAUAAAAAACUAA. From B. subtilis. Hit rate about 0.7% of about 24,000 compounds.
TPP: TPP riboswitch RNA three-way junction, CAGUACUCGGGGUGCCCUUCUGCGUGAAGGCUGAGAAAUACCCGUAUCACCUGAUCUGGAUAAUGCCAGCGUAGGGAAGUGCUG. Hit rate about 0.7% of about 24,000 compounds.
SAM-II: SAM-II riboswitch RNA pseudoknot, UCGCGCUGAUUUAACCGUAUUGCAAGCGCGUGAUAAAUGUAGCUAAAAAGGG. Hit rate about 1% of about 21,000 compounds.

{"smiles": "C=CCNc1nc(N)c(C(=O)c2ccc(Cl)cc2)s1", "PreQ1": "none", "TPP": "none", "SAM-II": "none"}
{"smiles": "O=C(Cn1cnc2ccccc2c1=O)Oc1cccc(NC2=NS(=O)(=O)c3ccccc32)c1", "PreQ1": "none", "TPP": "none", "SAM-II": "none"}
{"smiles": "Cc1ccc(C)c(Nc2nc3ccccc3c3nnc(C)n23)c1", "PreQ1": "none", "TPP": "none"}
{"smiles": "Cc1cccc(CN2c3ccccc3C3=C(C(c4cccc(F)c4)C(C#N)=C(N)O3)S2(=O)=O)c1", "stereo": "stereo not given", "PreQ1": "none", "TPP": "none"}
{"smiles": "CCOC(=O)c1cnc2c(C(F)(F)F)cccc2c1Nc1ccc(N(C)C)cc1", "PreQ1": "hit", "TPP": "none", "SAM-II": "none"}
{"smiles": "Cc1cc(C)c2c(SC(C)C)nc(N)nc2n1", "PreQ1": "none", "TPP": "none", "SAM-II": "none"}
{"smiles": "CCCC(NC(=O)c1cccc(NCc2cccs2)c1)c1nccn1C", "stereo": "stereo not given", "PreQ1": "none", "TPP": "none", "SAM-II": "none"}
{"smiles": "Cc1cc(Nc2ccc(C)c(Cl)c2)n2nc(-c3cccnc3)nc2n1", "PreQ1": "none", "TPP": "none"}
{"smiles": "CCC(C)NCc1ccc2c(c1)n(C)c(=O)n2C", "stereo": "stereo not given", "PreQ1": "none", "TPP": "none"}
{"smiles": "Cn1cnc([N+](=O)[O-])c1Sc1nnc[nH]1", "PreQ1": "none", "TPP": "none", "SAM-II": "none"}
{"smiles": "NC(=O)c1cccc(N)c1", "PreQ1": "none", "TPP": "none", "SAM-II": "none"}
{"smiles": "O=c1nc[nH]c(CN2CCCCC2)c1O", "PreQ1": "none", "TPP": "none", "SAM-II": "none"}
{"smiles": "OCCCc1nc2n(n1)C(c1ccc(Cl)cc1)C=C(c1ccc(F)cc1)N2", "stereo": "stereo not given", "PreQ1": "none", "TPP": "none", "SAM-II": "none"}
{"smiles": "COC(=O)[C@@H](N)CCC(=O)N1CCC(C(C)=O)(c2ccccc2)CC1", "PreQ1": "none", "TPP": "none", "SAM-II": "none"}
{"smiles": "COCCN(C)C[C@@H]1CN(C(=O)c2cc(F)cc(C#N)c2)C[C@@H]1CO", "PreQ1": "none", "TPP": "none", "SAM-II": "none"}
{"smiles": "O=C(O)CCNc1cc(N2CCc3ccccc3CC2)nc(-c2ccccn2)n1", "PreQ1": "none", "TPP": "none", "SAM-II": "none"}
{"smiles": "CN(Cc1csc(-c2ccccc2)n1)c1nc(N)nc2[nH]cnc12", "PreQ1": "none", "TPP": "none", "SAM-II": "none"}
{"smiles": "Cc1ccc(-n2nc(CO)c(C(=O)NCC(c3ccccc3)c3ccccc3)n2)cc1", "PreQ1": "none", "TPP": "none"}
{"smiles": "O=S(=O)(c1ccccc1)c1cnc2ccccc2c1Nc1ccc(Cl)cc1", "PreQ1": "none", "TPP": "none"}
{"smiles": "CCc1c(O)cc(O)c(C(=O)c2ccc(OCCN3CCOCC3)c(OC)c2)c1CC(=O)N(CCOC)CCOC", "PreQ1": "none", "TPP": "none", "SAM-II": "none"}
{"smiles": "Cc1ccccc1N1C(=O)c2cc(S(N)(=O)=O)c(Cl)cc2NC1C", "stereo": "stereo not given", "PreQ1": "none", "TPP": "none", "SAM-II": "none"}
{"smiles": "Nc1cc(C(=O)c2ccc(Oc3ccccc3)c(N)c2)ccc1Oc1ccccc1", "PreQ1": "hit", "TPP": "hit", "SAM-II": "hit"}
{"smiles": "CCN(CC)CCNCc1ccc2c(c1)n(C)c(=O)n2C", "PreQ1": "none", "TPP": "none"}
{"smiles": "CC(C)c1ccccc1-n1c(CCCO)n[nH]c1=O", "PreQ1": "none", "TPP": "none", "SAM-II": "none"}
{"smiles": "C=CCNCc1ccccc1C(F)(F)F.Cl", "PreQ1": "none", "TPP": "none", "SAM-II": "none"}
{"smiles": "COc1ccc2cc3c(N)nn(C(=O)Cc4ccccc4OC)c3nc2c1", "PreQ1": "none", "TPP": "none", "SAM-II": "none"}
{"smiles": "CN1CN(C)C(c2ccncc2)=C1c1ccncc1", "PreQ1": "none", "TPP": "none", "SAM-II": "none"}
{"smiles": "CCCOc1cccc(C2c3c(-c4ccccc4O)n[nH]c3C(=O)N2CCO)c1", "stereo": "stereo not given", "PreQ1": "none", "TPP": "none"}
{"smiles": "CCOc1ccc(C(=O)c2sc3nc(N)c(C#N)c(CC)c3c2N)cc1", "PreQ1": "none", "TPP": "none", "SAM-II": "none"}
{"smiles": "Cc1ccc2cc3c(N)nn(C(=O)c4ccc(F)cc4)c3nc2c1", "PreQ1": "none", "TPP": "none", "SAM-II": "none"}

Some entries from above, unchanged:

{"smiles": "OCCCc1nc2n(n1)C(c1ccc(Cl)cc1)C=C(c1ccc(F)cc1)N2", "stereo": "stereo not given", "PreQ1": "none", "TPP": "none", "SAM-II": "none"}
{"smiles": "Cc1ccc(-n2nc(CO)c(C(=O)NCC(c3ccccc3)c3ccccc3)n2)cc1", "PreQ1": "none", "TPP": "none"}